At least one peptide structure holds a part that was inferred or is arguable (an end, a ring closure or a residue). Peptide text beside a SMILES is read from it.
What was measured:
apoptotic Jurkat cells = assay: ICP-MS assay of Gd in apoptotic Jurkat cells incubated with Gd-DTPA-LIKKPF; assay type: cell-based; details: 400, 200 and 100 μM Gd, 2 hours, concentration-dependent, FIG. 5
[1] = Relaxivity measurements (r1, r2) in aqueous solution; assay type: physicochemical; details: Gd complex
Experimental: The relaxation times T1 and T2 were determined by standard procedures on a Minispec 120 instrument (Bruker) at 20 MHz (0.47T) and 37° C. The longitudinal relaxation time T1 is measured using an inversion-recovery sequence and the transverse relaxation time T2 is measured using a CPMG technique.
The relaxation rates R1 (=1/T1) and R2 (=1/T2) were calculated for various concentrations of total metal (ranging from 0.1×10^−3 to 1×10^−3 mol/l) in an aqueous solution at 37° C. The correlation between R1 or R2 as a function of the concentration is linear, and the slope represents the relaxivity r1 (R1/C) or r2 (R2/C) expressed as (1/second)×(1/mmol/l), i.e. (s^−1.mM^−1).

[2] = system: atheroma plaque, abdominal aorta; assay: MRI of the abdominal aorta in the apoE−/− mouse model of atherosclerosis; assay type: in vivo, C57B1 ApoE−/− mice; details: i.v. 100 gmol Gd/kg, RARE sequence, 27 minutes after injection, FIGS. 7 and 8
mouse apoptotic liver = assay: MRI of apoptotic liver in the mouse (anti-Fas antibody induced); assay type: in vivo, Balb/c mice
Experimental: The targeting effectiveness of the Gd-DTPA-LIKKPF product by MRI was also evaluated on a model of apoptotic liver in the mouse. The apoptosis is induced by means of an i.v. injection (caudal vein) of anti-Fas monoclonal antibody in anesthetized Balb/c mice (Blankenberg et al., 1998, 1999; Rodriguez et al., 1996).
Before the MRI acquisition, the mice are anesthetized with pentobarbital. The experiments are carried out using a 200 MHz Bruker spectrometer (4.7 T) equipped with a vertical magnet and with a mini-imaging system. […] The signal intensity (SI) is measured in the liver. The SI value is also measured in a tube filled with a 2% aqueous solution of gelatin enriched with 50 μM Gd-DTPA, used as a reference product, in a region outside the image of the mouse which corresponds to the background noise. […]
For the two models, the SI values are measured in various regions of interest (at the level of the arterial wall of the abdominal aorta or whole liver) using the OSIRIS image analysis software. […] The SI value is measured on all the image slices where the arterial wall and the liver are visible. […] The % ΔSNR is calculated according to the following equation:
% ΔSNR=[(SIpost/SDnoise)−(SIpre/SDnoise)]/[SIpre/SDnoise]×100 where SDnoise is the standard deviation of the noise measured on a region outside the animal.

CC[C@H](C)[C@H](NC(=O)[C@H](CC(C)C)NC(=O)COCCOCCNC(=S)Nc1ccc(CC(CN(CCN(CC(=O)O)CC(=O)O)CC(=O)O)N(CC(=O)O)CC(=O)O)cc1)C(=O)N[C@@H](CCCCN)C(=O)N[C@@H](CCCCN)C(=O)N1CCC[C@H]1C(=O)N[C@@H](Cc1ccccc1)C(=O)O (stereo partly drawn) [Gd-DTPA-LIKKPF] (HELM PEPTIDE1{[O=C(O)CN(CCN(CC(=O)O)CC(Cc1ccc(NC(=S)[*:2])cc1)N(CC(=O)O)CC(=O)O)CC(=O)O].[O=C(COCCOCCN[*:1])[*:2]].L.I.K.K.P.F}$$$$V2.0)
interaction with apoptotic cells (Gd by ICP-MS) vs control cells (apoptotic Jurkat cells): greater than the uptake of the product by the control cells
r1 to 0.47 T ([1]; 0.47 T): 9.6 s⁻¹ mM⁻¹
r1 to 1.4 T ([1]; 1.4 T): 10.1 s⁻¹ mM⁻¹
signal enhancement at the level of the abdominal aorta [2]: greater than that measured with the nongrafted product (Gd-DTPA)
MRI signal enhancement in the healthy mouse (mouse apoptotic liver; healthy mouse): only a partial signal enhancement
enhancement of the MRI signal of the mouse apoptotic liver (mouse apoptotic liver; i.v. 60 μmol Gd/kg, dynamic monitoring, FIG. 6): greater than that measured with the Gd-DTPA-FKIPKL (scrambled) or the unfunctionalized Gd-DTPA

From US20100143250A1, “COMPOUNDS FOR THE DIAGNOSIS OF APOPTOSIS” (priority 2007, published 2010)
